The source of these data is the supplement of paper PMC10849652.

Chains of the proteins cited; added tags and fusions are not shown. Lines headed by an entry give the natural chain unless they say otherwise; changes in a name come on top.
UniProt Q2TBE0: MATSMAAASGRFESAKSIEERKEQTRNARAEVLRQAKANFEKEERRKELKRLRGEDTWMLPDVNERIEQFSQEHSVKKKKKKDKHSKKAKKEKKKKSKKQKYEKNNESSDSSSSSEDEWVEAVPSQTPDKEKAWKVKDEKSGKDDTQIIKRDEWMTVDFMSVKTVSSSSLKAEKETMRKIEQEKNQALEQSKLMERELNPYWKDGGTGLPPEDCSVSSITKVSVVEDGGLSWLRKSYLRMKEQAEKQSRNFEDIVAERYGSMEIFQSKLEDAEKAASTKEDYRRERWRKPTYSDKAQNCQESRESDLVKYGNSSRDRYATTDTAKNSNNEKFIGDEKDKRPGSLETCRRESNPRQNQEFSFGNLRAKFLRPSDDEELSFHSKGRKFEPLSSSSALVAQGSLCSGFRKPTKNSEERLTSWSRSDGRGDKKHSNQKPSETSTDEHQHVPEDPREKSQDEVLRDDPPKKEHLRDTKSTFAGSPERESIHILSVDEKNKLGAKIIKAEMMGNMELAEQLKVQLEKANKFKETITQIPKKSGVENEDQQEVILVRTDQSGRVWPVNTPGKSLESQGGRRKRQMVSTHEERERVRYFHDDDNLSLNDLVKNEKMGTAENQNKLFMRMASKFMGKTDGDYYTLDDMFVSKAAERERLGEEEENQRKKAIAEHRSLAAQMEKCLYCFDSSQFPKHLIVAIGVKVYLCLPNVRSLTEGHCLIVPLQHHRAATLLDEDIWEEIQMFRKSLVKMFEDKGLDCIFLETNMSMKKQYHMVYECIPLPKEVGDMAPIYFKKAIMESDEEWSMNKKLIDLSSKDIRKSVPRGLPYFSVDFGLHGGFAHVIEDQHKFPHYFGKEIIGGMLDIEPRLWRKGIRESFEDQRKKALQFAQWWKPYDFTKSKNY
UniProt Q07973: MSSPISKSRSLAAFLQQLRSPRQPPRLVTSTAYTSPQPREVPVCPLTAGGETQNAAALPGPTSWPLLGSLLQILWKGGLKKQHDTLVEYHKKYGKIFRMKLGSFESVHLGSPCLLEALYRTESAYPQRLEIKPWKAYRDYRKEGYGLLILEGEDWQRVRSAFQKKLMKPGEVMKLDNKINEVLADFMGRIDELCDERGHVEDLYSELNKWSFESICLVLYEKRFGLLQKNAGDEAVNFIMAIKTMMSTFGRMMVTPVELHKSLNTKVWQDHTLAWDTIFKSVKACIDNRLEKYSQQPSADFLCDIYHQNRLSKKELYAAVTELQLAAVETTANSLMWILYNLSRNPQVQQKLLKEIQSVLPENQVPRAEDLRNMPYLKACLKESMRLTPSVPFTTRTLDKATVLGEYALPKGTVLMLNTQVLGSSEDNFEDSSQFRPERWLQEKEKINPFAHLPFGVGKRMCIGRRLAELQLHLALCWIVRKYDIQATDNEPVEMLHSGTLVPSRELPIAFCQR
UniProt Q15828: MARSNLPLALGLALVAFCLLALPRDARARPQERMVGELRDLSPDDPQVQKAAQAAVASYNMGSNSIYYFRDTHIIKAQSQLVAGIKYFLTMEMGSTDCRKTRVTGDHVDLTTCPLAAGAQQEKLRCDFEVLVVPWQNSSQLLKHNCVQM
UniProt P49447: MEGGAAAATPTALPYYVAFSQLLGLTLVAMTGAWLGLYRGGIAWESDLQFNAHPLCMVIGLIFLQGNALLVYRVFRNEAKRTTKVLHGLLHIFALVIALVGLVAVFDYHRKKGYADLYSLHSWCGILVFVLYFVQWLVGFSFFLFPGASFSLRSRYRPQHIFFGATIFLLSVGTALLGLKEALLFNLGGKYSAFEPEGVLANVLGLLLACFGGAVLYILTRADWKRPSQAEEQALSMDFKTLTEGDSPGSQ
UniProt P25774, whole entry, looked up: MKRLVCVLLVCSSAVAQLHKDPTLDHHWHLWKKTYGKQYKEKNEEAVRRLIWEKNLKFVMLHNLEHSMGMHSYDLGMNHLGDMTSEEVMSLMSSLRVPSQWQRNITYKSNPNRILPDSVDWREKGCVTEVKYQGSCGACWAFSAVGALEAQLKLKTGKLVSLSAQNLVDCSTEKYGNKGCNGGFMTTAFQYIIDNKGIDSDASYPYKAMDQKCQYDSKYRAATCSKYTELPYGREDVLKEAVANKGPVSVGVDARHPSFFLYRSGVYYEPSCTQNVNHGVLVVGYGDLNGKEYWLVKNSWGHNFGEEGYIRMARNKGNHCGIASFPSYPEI
UniProt Q9BWK5: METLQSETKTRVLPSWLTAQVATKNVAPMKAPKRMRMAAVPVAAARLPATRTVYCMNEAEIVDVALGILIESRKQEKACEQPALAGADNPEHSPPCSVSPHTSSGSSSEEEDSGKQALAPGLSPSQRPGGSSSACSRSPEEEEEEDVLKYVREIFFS
UniProt Q15438: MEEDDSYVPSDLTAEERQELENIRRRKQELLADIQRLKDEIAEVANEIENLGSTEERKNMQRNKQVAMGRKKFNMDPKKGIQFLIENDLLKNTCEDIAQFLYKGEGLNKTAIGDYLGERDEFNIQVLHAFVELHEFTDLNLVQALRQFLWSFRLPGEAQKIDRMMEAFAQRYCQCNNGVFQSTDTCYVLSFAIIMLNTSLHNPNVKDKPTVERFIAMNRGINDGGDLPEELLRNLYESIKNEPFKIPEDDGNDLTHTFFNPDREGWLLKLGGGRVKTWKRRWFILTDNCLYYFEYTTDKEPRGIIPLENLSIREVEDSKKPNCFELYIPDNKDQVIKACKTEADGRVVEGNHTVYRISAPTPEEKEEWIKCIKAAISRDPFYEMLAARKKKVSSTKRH
UniProt O60931: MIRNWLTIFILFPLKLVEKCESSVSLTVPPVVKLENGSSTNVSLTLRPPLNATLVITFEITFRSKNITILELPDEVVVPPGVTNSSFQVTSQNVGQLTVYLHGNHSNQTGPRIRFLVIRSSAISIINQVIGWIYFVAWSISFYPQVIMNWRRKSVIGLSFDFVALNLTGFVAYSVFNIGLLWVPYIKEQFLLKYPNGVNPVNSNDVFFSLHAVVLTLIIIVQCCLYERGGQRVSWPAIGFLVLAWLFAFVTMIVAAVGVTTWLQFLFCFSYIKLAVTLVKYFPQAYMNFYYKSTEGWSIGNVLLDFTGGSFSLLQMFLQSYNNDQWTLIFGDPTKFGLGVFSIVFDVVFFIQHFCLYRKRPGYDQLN
UniProt Q6ZWL3: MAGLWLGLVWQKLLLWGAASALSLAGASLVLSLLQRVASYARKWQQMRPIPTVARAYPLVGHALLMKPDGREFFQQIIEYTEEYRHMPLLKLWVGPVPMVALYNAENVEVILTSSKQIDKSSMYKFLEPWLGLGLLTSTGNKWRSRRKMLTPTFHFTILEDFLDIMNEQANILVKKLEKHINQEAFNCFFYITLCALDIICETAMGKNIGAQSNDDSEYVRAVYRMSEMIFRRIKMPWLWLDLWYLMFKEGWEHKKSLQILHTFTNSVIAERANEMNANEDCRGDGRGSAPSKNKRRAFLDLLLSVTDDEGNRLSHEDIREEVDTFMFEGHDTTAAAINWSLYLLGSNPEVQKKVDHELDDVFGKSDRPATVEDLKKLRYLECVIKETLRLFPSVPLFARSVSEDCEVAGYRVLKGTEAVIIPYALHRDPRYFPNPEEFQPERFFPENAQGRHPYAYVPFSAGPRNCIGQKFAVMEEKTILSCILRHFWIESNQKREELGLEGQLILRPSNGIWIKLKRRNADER
UniProt Q5H9S7: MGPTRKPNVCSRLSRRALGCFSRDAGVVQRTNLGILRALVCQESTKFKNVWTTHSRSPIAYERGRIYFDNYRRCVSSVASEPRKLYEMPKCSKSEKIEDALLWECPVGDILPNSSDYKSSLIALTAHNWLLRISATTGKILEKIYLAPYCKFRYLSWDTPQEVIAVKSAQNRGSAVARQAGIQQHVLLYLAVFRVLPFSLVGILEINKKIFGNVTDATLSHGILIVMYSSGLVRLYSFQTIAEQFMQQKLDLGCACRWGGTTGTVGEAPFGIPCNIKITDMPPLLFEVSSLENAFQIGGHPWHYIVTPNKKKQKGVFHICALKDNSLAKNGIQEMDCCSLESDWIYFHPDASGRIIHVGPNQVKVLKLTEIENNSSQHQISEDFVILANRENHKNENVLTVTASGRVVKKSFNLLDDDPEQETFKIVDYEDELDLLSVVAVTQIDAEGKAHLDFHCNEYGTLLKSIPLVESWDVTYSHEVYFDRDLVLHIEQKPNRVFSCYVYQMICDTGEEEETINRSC
UniProt Q53TN4: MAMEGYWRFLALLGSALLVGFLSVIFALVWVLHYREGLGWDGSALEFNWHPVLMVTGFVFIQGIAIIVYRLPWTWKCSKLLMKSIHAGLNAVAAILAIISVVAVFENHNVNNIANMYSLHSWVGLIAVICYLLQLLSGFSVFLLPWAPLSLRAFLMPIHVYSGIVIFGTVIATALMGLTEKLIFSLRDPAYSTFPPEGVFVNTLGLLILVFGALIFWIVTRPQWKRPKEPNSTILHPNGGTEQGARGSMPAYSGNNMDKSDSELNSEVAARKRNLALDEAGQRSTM
UniProt Q6VVX0: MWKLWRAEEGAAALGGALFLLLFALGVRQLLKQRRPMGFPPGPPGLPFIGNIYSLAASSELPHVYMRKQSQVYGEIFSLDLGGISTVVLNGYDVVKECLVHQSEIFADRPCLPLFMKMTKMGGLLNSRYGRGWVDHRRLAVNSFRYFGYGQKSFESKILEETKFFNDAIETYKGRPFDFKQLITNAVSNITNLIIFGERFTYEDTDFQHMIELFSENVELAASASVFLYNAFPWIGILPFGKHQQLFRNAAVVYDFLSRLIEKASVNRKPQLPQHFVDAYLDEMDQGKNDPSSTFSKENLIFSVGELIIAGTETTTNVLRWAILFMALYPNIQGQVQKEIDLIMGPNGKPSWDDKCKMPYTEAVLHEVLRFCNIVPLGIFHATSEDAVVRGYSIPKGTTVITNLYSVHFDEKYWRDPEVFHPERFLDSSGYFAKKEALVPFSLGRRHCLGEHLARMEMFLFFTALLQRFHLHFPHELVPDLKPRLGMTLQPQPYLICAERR
UniProt O95196: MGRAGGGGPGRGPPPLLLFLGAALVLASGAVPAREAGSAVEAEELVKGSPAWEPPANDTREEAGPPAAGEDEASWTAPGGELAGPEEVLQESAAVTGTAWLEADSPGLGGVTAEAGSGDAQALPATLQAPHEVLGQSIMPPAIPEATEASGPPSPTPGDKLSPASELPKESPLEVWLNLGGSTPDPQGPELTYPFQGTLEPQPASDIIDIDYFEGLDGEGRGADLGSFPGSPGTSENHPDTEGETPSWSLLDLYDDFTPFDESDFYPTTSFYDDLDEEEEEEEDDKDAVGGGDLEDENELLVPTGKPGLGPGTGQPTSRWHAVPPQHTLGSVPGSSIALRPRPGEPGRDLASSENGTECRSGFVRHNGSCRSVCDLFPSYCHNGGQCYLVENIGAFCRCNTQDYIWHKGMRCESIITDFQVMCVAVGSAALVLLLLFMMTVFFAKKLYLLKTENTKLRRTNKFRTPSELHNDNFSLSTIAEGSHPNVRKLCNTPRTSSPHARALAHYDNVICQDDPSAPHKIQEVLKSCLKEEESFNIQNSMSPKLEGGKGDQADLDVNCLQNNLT
UniProt Q8WV16: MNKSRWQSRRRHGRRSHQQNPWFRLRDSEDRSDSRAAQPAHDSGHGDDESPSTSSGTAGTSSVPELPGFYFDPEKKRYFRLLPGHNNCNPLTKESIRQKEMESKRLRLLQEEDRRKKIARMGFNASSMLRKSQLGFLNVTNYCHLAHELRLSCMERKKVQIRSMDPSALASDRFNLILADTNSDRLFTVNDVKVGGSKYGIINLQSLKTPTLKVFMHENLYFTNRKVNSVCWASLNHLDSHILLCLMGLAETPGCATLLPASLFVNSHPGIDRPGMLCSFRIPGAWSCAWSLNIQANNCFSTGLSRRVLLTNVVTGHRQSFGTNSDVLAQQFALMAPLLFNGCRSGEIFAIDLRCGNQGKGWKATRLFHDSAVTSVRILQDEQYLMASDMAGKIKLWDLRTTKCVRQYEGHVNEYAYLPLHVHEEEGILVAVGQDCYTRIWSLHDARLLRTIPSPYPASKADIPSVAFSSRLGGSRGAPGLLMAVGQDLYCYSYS

The other results are listed elsewhere or left out.

Compound in the first assay: c1cc(OCCN2CCCCC2)cc(-c2n[nH]c3ccc(-c4nnc[nH]4)cc23)c1
Nature of the assay: log2 fold change, soluble protein after heating vs DMSO (PISA); higher = thermal stabilisation; K562 cells, 10 uM, 30 min; active = over 0.2 and 3.5 SD of the protein, either way, in both replicates (recomputed). An outline of the steps:
(§1)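 Soluble protein was defined as the supernatant after 21,000xg for 90 min. It came from K562 cells at 2×10^6 cells/mL given 10 μM compound for 30 min, heated in aliquots for 3 min across 48°C-58°C, pooled, and extracted in PBS with 0.5% NP-40 at 4°C, and was quantified by TMTpro 16plex LC-MS/MS with equalised channel sums. Thermal stability against control samples, from duplicates, is reported as log2 fold change.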
Regarding CWF19L2 (UniProt Q2TBE0), the log2 fold change was inactive: -0.001.
In the case of CYP24A1 (UniProt Q07973), the log2 fold change is inactive: 0.109.
Take CST6 (UniProt Q15828): the log2 fold change was inactive: 0.269.
Still for that read-out and setting: under DCAF12 (UniProt Q5T6F0) stands inactive: 0.055; under CYB561 (UniProt P49447), inactive: -0.204; under CTSS (UniProt P25774), inactive: -0.089.
Turning to CYREN (UniProt Q9BWK5), the log2 fold change is inactive: 0.175.
Still for that read-out and setting: then CTNNBL1 (UniProt Q8WYA6), with inactive: -0.068; and CYTH1 (UniProt Q15438), with inactive: -0.245.
Still for that read-out and setting: then CTR9 (UniProt Q6PD62), with inactive: -0.093; and CTNS isoform 2 (UniProt O60931), with inactive: -0.032.
On the same count and under the same terms, then CYP4V2 (UniProt Q6ZWL3), with inactive: 0.011; and DCAF17 (UniProt Q5H9S7), with inactive: -0.038; and CYBRD1 (UniProt Q53TN4), with inactive: -0.161.
Turning to CYP2R1 (UniProt Q6VVX0), the log2 fold change was inactive: -0.032.
On the same count and under the same terms, then CSPG5 (UniProt O95196), with inactive: -0.03; and DCAF4 (UniProt Q8WV16), with inactive: -0.094.

Compound in the next assay: c1cn2cc(-c3ccc4cn[nH]c4c3)nc(Nc3ccc(N4CCOCC4)cc3)c2n1 [entospletinib]
Described as above. The procedure, abridged: as §1
CST6 (UniProt Q15828): the log2 fold change was inactive: -0.009.
On the same count and under the same terms, then CYB561 (UniProt P49447), with inactive: 0.073; and CYREN (UniProt Q9BWK5), with inactive: -0.144.
On the same count and under the same terms, then CYTH1 (UniProt Q15438), with inactive: 0.16.
The same measure, in the same setting: then CTR9 (UniProt Q6PD62), with inactive: 0.321; and CTNS isoform 2 (UniProt O60931), with inactive: 0.068.
Consider CYP4V2 (UniProt Q6ZWL3), for which the log2 fold change was inactive: 0.038.
With DCAF17 (UniProt Q5H9S7), the log2 fold change is inactive: -0.036.
With CYBRD1 (UniProt Q53TN4), the log2 fold change was inactive: 0.147.
On the same count and under the same terms, under CYP2R1 (UniProt Q6VVX0) stands inactive: 0.012; under CSPG5 (UniProt O95196), inactive: 0.197.
